Experimental findings from paper PMC12670160, “A drug-repurposing screen of FDA- and EMA-approved drugs identifies two NF-κB inhibitors active against eumycetoma” (Journal of Antimicrobial Chemotherapy, 2025) are described below.

Where a name gives a salt, the structure may show the parent alone. Hit rate of the full screen: of about 5,300 compounds, about 130 (2.5%) showed an effect of 50% or more. The list shows a part of the results. Square brackets hold non-standard residues; d marks the D form. Peptide text beside a SMILES is read from it. * marks the point of attachment. Sta = CC(C)C[C@H](N)[C@@H](O)CC(=O)O; Isovaleryl = CC(C)CC(=O)*

The assay relates to M. mycetomatis strain mm55. To be noted: primary screen, metabolic activity vs growth control; 96 h, 2 µM; inhibitor.
Consider `CCn1cc(C(=O)O)c(=O)c2cc3c(cc21)OCO3` [ONC0000603, oxolinic acid], for which the “% viability” value amounted to 129.7%.
With `CC(=O)O[C@@]12CO[C@@H]1C[C@H](O)[C@@]1(C)C(=O)[C@H](O)C3=C(C)[C@@H](O)C[C@@](O)([C@@H](OC(=O)c4ccccc4)[C@H]21)C3(C)C` [ONC0004983, 10dab 10deacetylbaccatin] the figure was 57.66%; with `O=C(O)c1cnn(-c2nc3cc(OC(F)(F)F)c(Cl)cc3[nH]2)c1` [ONC0001206, jnj42041935], 120.2%.
Under `COC(=O)c1ccc(O)cc1` [ONC0003859, methylparaben] stands 64.72%.
Under `Nc1nc(NCCc2ccc(O)cc2)nc2nc(-c3ccco3)nn12` [ONC0004246, zm241385] stands 57.65%.
Turning to `CCCCCCCCCCCC(=O)N(CCO)CCO` [ONC0003853, nnbis2hydroxyethyldodecanamide], the “% viability” value is 67.81%.
Under `COC(=O)N(C)c1c(N)nc(-c2nn(Cc3ccccc3F)c3ncccc23)nc1N` [ONC0005622, riociguat] stands 86.35%; under `Cc1nc(-c2cn3c(n2)-c2ccc(-c4cnn(C(C)(C)C(N)=O)c4)cc2OCC3)n(C(C)C)n1` [ONC0000929, taselisib], 95.85%; under `O=C(/C=C/c1ccc(CN(CCO)CCc2c[nH]c3ccccc23)cc1)NO` [ONC0004920, laq824 dacinostat], 120.2%.
With `CC(C)CC(=O)N[C@H](C(=O)N[C@H](C(=O)N[C@@H](CC(C)C)[C@@H](O)CC(=O)N[C@@H](C)C(=O)N[C@@H](CC(C)C)[C@@H](O)CC(=O)O)C(C)C)C(C)C` [ONC0003490, pepstatin a] (Isovaleryl-VV[Sta]A[Sta]-OH) the figure was 59.74%; with `CC1(C)CCC(C)(C)c2cc(C3(c4ccc5cc(C(=O)O)ccc5c4)SCCS3)ccc21` [ONC0001639, mm11253], 70.81%; with `O=c1cc[nH]c(=S)[nH]1` [ONC0002403, 2thiouracil], 79.01%.
With `N=C(N)NC(=O)c1cnn(-c2cccc3ncccc23)c1C1CC1` [ONC0001657, zoniporide] the figure was 82.36%; with `c1ccc(CCNc2nc(-c3ccccc3)cs2)cc1` [ONC0003762, fanetizole], 120.3%; with `COC(=O)C1=C(C)NC(C)=C(C(=O)OCCSc2ccccc2)C1C` (stereo not drawn) [ONC0000081, pca4248], 107.9%.
Regarding `C[C@H](O)C(=O)Nc1c(I)c(C(=O)NC(CO)CO)c(I)c(C(=O)NC(CO)CO)c1I` [ONC0002069, iopamidol], the “% viability” value is given as 64.43%.
Under `CN(C)C(=O)Oc1cc(OC(=O)N(C)C)cc(C(O)CNC(C)(C)C)c1` (stereo not drawn) [ONC0004231, bambuterol hydrochloride] stands 62.71%.
With `Cc1cccc(C#Cc2ccccc2)n1` [ONC0002625, mpep] the figure was 98.76%.
Under `c1ccc(C(NCc2cccnc2)(c2ccccc2)c2ccccc2)cc1` [ONC0003020, ucl2077] stands 70.37%.
As to `N[C@H](C(=O)O)c1cc(O)cc(O)c1` [ONC0001512, 35dhpgs], the “% viability” value came out at 79.83%.
With `Cn1cc([S+](C)[O-])c(=O)c2ccc(F)cc21` (stereo not drawn) [ONC0001984, flosequinan] the figure was 105.9%.
For `O=C(O)c1cc2ccccc2s1` [ONC0003749, bl5583], the “% viability” value is reported as 99.79%.
With `CO/N=C(\C(=O)N[C@@H]1C(=O)N2C(C(=O)O)=C(Cn3ccc(=N)n3CCO)CS[C@H]12)c1csc(N)n1` [ONC0004384, cefoselis sulfate] the figure was 127.4%; with `CCCN1CCC[C@H](c2cccc(O)c2)C1` [ONC0002744, r33hydroxyphenylnpropylpiperidine hydrochloride], 58.06%.
Under `CC1Cc2ccccc2N1NC(=O)c1ccc(Cl)c(S(N)(=O)=O)c1` (stereo not drawn) [ONC0000372, indapamide] stands 91.11%; under `COc1ccc(C2CC(c3c(O)cc(C)oc3=O)=NCCS2)c(OC)c1` (stereo not drawn) [ONC0002676, kf38789], 61.68%; under `CCC(=O)c1c(O)cc(O)cc1O` [ONC0005354, flopropione], 89.06%.
Under `C=CC(=O)Nc1ccc2ncnc(Nc3cccc(Br)c3)c2c1` [ONC0005144, pd168393] stands 107.8%; under `N#Cc1ccnc(N2C(=O)CC[C@H]2C(=O)N(c2cncc(F)c2)[C@H](C(=O)NC2CC(F)(F)C2)c2ccccc2Cl)c1` [ONC0000852, ivosidenib], 77.83%.
In the case of `CNC(=O)c1cnn(-c2nc(N)c3ncn([C@@H]4O[C@H](CO)[C@@H](O)[C@H]4O)c3n2)c1` [ONC0003450, regadenoson], the “% viability” value was 65.12%.
Under `CCO[C@@H](Cc1ccc(OCCn2c(C)ccc2-c2ccc(SC)cc2)cc1)C(=O)O` [ONC0002679, saroglitazar] stands 69.37%.
With `Nc1ccc(S(=O)(=O)Nc2ccnn2-c2ccccc2)cc1` [ONC0000643, sulfaphenazole] the figure was 127.8%; with `CCN(C)C(=O)Oc1cccc([C@H](C)N(C)C)c1` [ONC0004201, rivastigmine tartrate], 105.8%; with `C[C@@H](N)c1ccc(C(=O)Nc2ccnc3[nH]ccc23)cc1` [ONC0001191, y33075 dihydrochloride], 84.21%.
`COC(=O)c1ccccc1-c1c2ccc(N)cc2[o+]c2cc(N)ccc12` [ONC0005366, rhodamine123]: the “% viability” value is on record as 107.2%.
Under `COc1ccc(Nc2ccn(-c3ccccc3)n2)cc1` [ONC0000324, n4methoxyphenyl1phenyl1hpyrazol3amine] stands 100.7%; under `CO/N=C(\C(=O)N[C@@H]1C(=O)N2C(C(=O)O)=C(COC(N)=O)CS[C@H]12)c1ccco1` [ONC0000670, cefuroxime sodium], 116%; under `CN1CCN(CCOc2cc(OC3CCOCC3)c3c(Nc4c(Cl)ccc5c4OCO5)ncnc3c2)CC1` [ONC0004950, saracatinib azd0530], 85.52%.
With `CCOCC(O)COc1ccc(NC(=O)CC[S+](C)C)cc1` (stereo not drawn) [ONC0001402, suplatast tosylate] the figure was 102.4%.
